# At least one compound was matched to its structure with a doubt left.
# What was measured:
# Format in all cases: cell-based
# [1] = test system: colorectal carcinoma HT-29 cell line; assay: "crystal violet" proliferation assay
# [2] = test system: murine melanoma S91 cell line; assay: "crystal violet" proliferation assay
# [3] = test system: human melanoma cells (WM35, WM239A, A375P); assay: "crystal violet" proliferation assay
# Procedure: The tests were carried out using cell lines of human melanoma originating from three stages of development: WM35 of the radial growth phase, WM239A metastatic line and A375P metastasis to lungs, malignant line.
# The following statins were used in the studies: atorvastatin, fluvastatin, rosuvastatin, and pravastatin. The tests were carried out using cell lines of human melanoma originating from invasive stages of development: WM239A metastatic line and A375P P-metastasis to lungs, malignant line. […] Methodology according to that described in Example 1 was used. Additionally, the toxicity was analysed by investigations of reduced and oxidised glutathione contents. HPLC method was used.
# human melanoma cells = assay: Taxol take-up into cells, HPLC (conclusions over the lines); conditions: for effect on take-up of taxanes into human melanoma cells: statin with docetaxel
Compound,effect on the cell line [1],synergy with Taxol [1],synergy of simvastatin with Taxol action [2],effect on proliferation of human melanoma cells ([3]; simvastatin 50 to 12.5 μM with Taxol at constant 0.5 μM),"increase of Taxol content in human melanoma cells, on average (human melanoma cells; in relation to the control with Taxol alone)",effect on proliferation of human melanoma cells ([3]; statin 50-12.5 μM with docetaxel regimen at constant 0.5 μM),effect on take-up of taxanes into human melanoma cells (human melanoma cells),"antiproliferative action ([3]; proliferation tests, with Taxol)"
CCC(C)(C)C(=O)O[C@H]1C[C@@H](C)C=C2C=C[C@H](C)[C@H](CC[C@@H]3C[C@@H](O)CC(=O)O3)[C@H]21 [simvastatin],does not affect the colorectal carcinoma HT-29 cell line,does not exhibit synergy with Taxol,does not exist,inhibits permanently the proliferation of various lines of human melanoma cells synergistically,two hundred percent,–,–,–
CC(C)n1c(/C=C/C(O)CC(O)CC(=O)O)c(-c2ccc(F)cc2)c2ccccc21 (stereo not drawn) [fluvastatin],–,–,–,–,–,permanently inhibit synergistically,slightly weaker action,–
CC[C@H](C)C(=O)O[C@H]1C[C@H](O)C=C2C=C[C@H](C)[C@H](CC[C@@H](O)C[C@@H](O)CC(=O)O)[C@H]21 [pravastatin],–,–,–,–,–,–,is not able to modify the take-up of taxanes into malignant cells,weak antiproliferative action

# From patent publication US10912756B2, “Method for the treatment of human melanoma” (UNIWERSYTET JAGIELLONSKI, priority 2017, dated 2021)
